Data as given in PubChem BioAssay AID504594 (Broad Institute, 2011).
The campaign covered roughly 2,000 compounds. Fewer than 10 were called active.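 How the source made its calls: active means growth inhibition of at least 75% in every replicate, which also brings the mean inhibition to 75% or more; inconclusive means mean inhibition 75% or more but some replicate under 75%; inactive means the rest.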 This is one part of the list.

Assay: growth inhibition of PfHsp90-dependent yeast, primary screen, antimalarial PfHsp90 inhibitor project, S. cerevisiae, BacTiter-Glo luminescence (AID 504594);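 further: 0% = DMSO neutral control wells and 100% = 20 µM radicicol control wells; higher value means stronger growth inhibition because the sign is flipped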
Details: S. cerevisiae expressing PfHsp90, BacTiter-Glo growth, 48 h; at 9.4 µM; stronger effect = higher value

Growth inhibition, inactive:
COc1ccc2c3c([nH]c2c1)C1(NCC3)C(=O)Nc2ccccc21 (configuration not stated) -3.79%
COc1ccccc1/C=C/CN1CCN(Cc2ccc(F)cc2)C(CCO)C1 (configuration not stated) 0.857%
O=C(N/N=C/c1ccc([N+](=O)[O-])o1)c1ccc(O)cc1 -12.9%
NC(=O)c1ncn([C@@H]2O[C@H](CO)[C@@H](O)[C@H]2O)c1O 2.24%
COc1ccccc1-c1ccc(/C=C2/C=C(CC(C)C)OC2=O)o1 1.71%
CCc1cc(C(N)=S)ccn1 -5.43%
Cc1ccc2c(c1)c(=O)c1c3n2CCN(C(=O)CCl)C3CC1 (configuration not stated) -5.71%
COc1cc(C(=O)OCCCN(C)C)cc(OC)c1OC -5.1%
O=C(OCC1CCCN2CCCCC12)c1ccc2c(c1)OCO2 (configuration not stated) -0.24%
CC1(C)C(=O)OC(/C=C\c2ccccc2)C(C)(C)C1=O (configuration not stated) -1.11%
O=C(O)CCn1c(=S)n(CCC(=O)O)c2ccccc21 7.47%
CC1(CC(=O)Nc2ccccc2)NC(=S)N(c2ccccc2)N1 (configuration not stated) -3.04%
CCOC(=O)Nc1ccc2c(c1)N(C(=O)CCN1CCOCC1)c1ccccc1S2 -3.19%
CCOC(=O)c1cnc2ccccc2c1NCCO -9.81%
CN=C(NC#N)NCCSCc1nc[nH]c1C 9.43%
CCC(C)NCCOCCOc1ccc(Cl)c2ccccc12 (configuration not stated) 0.98%
COc1ccc(-c2csc(-c3cccnc3)n2)cc1C -2.65%
COc1ccc(C2(CCN=Cc3ccc(N(C)C)cc3)CCOC(C)(C)C2)cc1 (configuration not stated) -0.00353%
COc1ccc(Br)cc1C(=O)Nc1ccc(C(=O)O)cc1 -27.9%
COc1cc([C@@H]2c3cc4c(cc3[C@H](O)[C@H]3COC(=O)[C@H]23)OCO4)cc(OC)c1OC 1.93%
COc1ccc(C(=O)Nc2ccccc2C(=O)NCCCn2ccnc2)cc1 -1.51%
CC(C)CC(NC(=O)C(NC(=O)OC(C)(C)C)C(C)C)C(=O)NC(CCC(=O)OCc1ccccc1)C(N)=O (configuration not stated) 9.04%
O=C(CC1SC(=O)NC1=O)Nc1ccc(Cl)cc1 (configuration not stated) 4.58%
COc1cc(OC)c2c(C)c(Cl)c(=O)oc2c1 -0.942%
COc1ccc(NC(=O)CC(c2ccccc2)c2ccco2)cc1 (configuration not stated) 0.795%
CC[C@H]1CN2CCc3cc(OC)c(OC)cc3[C@@H]2C[C@@H]1C[C@H]1NCCc2cc(OC)c(OC)cc21 -0.432%
CCOc1ccc2oc(-c3ccccc3)c(C(=O)O)c2c1 -4.24%

Reprinted at random: 2 records from the list
Growth inhibition, inactive:
COc1ccc(C(=O)Nc2ccccc2C(=O)NCCCn2ccnc2)cc1 -1.51%
CCc1cc(C(N)=S)ccn1 -5.43%
